Test results published in article PMC11130243.
These are yes or no findings as the source states them, for the method shown. In cells and extracts the contact can be indirect. Some results given as binding are weak or reduced against the parent protein; the word gives no strength. For part of these data: Sequences can lack the tags named with a protein. Each block holds one molecule with its values, some of them ahead of it.

Chains of the proteins cited; added tags and fusions are not shown.
UniProt P23458: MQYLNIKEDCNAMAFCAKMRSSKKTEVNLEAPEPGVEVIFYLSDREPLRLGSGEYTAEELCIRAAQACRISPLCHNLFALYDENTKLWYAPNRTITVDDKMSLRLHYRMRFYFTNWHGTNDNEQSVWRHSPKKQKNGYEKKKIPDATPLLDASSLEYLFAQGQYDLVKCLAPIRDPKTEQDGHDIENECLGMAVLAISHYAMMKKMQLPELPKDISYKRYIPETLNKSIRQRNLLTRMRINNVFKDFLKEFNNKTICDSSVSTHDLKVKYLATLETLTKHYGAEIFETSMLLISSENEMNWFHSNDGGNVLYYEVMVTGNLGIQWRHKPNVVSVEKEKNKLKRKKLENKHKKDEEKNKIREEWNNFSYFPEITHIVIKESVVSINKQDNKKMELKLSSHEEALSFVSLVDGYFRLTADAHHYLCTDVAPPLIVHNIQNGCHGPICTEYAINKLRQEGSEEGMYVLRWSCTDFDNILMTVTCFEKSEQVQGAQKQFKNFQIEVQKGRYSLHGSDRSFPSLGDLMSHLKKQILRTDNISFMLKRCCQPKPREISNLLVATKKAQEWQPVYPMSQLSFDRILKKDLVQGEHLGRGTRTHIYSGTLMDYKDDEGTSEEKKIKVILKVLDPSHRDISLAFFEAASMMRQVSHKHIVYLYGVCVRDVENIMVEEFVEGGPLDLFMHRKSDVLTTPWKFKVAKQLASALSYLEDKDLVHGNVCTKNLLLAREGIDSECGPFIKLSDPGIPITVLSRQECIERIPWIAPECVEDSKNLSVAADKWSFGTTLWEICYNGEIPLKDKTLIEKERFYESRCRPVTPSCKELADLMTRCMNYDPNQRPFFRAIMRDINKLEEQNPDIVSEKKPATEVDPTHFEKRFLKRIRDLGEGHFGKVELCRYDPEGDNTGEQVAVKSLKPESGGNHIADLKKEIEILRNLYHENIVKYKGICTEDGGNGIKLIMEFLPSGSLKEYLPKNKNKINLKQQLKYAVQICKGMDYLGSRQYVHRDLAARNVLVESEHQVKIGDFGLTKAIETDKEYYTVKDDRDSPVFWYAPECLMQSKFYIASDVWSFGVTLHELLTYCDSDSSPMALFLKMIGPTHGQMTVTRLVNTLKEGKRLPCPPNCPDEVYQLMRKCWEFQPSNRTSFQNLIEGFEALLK

Tests used:
Flag-PJA2-rm (human) = molecular target: T1, Flag-PJA2-rm (human) (UniProt O43164); experiment: co-IP; HEK293T transfected with Flag-PJA2 variants (control Flag-mCherry); standard co-IP lysis buffer (50 mM Tris HCl pH 7.5, 150 mM NaCl, 1 mM EDTA, 1% Triton X-100); anti-Flag IP, Protein G Dynabeads; TYK2 or JAK1 immunoblotted
T1 sequence: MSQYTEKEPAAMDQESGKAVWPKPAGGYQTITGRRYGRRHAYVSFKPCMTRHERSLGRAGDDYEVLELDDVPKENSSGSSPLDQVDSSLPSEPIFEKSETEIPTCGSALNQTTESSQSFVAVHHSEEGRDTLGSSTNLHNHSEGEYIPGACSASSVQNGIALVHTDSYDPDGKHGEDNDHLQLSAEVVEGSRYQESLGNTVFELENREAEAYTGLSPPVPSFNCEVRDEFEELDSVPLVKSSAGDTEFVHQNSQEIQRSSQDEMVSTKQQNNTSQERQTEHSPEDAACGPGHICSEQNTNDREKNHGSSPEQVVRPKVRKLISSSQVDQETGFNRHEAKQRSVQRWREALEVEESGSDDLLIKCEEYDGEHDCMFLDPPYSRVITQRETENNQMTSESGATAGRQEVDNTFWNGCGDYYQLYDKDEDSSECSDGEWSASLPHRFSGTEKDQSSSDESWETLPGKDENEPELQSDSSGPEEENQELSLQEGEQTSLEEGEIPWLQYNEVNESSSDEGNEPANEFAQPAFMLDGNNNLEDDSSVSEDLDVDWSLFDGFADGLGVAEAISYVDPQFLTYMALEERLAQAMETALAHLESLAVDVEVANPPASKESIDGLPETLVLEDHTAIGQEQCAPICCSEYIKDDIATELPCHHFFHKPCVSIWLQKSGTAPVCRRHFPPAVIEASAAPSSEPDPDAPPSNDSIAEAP

Flag-PJA2 (human) = molecular target: T2, Flag-PJA2 (human) (UniProt O43164); experiment: as above
T2 sequence: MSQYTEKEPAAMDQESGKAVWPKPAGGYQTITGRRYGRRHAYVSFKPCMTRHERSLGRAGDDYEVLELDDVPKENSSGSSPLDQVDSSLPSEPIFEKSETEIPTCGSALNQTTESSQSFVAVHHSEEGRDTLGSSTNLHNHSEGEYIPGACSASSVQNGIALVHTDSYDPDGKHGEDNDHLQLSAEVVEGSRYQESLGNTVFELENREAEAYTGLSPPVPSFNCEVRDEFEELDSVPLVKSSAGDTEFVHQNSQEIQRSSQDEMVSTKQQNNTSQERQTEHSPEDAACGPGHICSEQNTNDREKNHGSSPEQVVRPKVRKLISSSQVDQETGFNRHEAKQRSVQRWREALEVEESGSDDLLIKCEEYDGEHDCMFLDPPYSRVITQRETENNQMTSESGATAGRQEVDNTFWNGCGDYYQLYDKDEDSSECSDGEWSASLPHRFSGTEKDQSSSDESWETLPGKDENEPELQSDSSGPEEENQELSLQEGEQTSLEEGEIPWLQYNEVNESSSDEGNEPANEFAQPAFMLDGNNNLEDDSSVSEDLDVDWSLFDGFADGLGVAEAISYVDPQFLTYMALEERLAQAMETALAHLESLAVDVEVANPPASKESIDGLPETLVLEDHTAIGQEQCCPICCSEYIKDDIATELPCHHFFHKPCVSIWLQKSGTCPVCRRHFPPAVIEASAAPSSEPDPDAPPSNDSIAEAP

V5-TYK2(1-588) (human) = molecular target: T3, V5-TYK2(1-588) (human) (UniProt P29597); experiment: co-IP; HEK293T transfected with V5-TYK2 constructs (controls GST-V5 or V5-GFP; with NTC or PJA2 siRNA in Fig. 6f); standard co-IP lysis buffer (50 mM Tris HCl pH 7.5, 150 mM NaCl, 1 mM EDTA, 1% Triton X-100); anti-V5 IP, Protein G Dynabeads; endogenous PJA2 immunoblotted
T3 sequence: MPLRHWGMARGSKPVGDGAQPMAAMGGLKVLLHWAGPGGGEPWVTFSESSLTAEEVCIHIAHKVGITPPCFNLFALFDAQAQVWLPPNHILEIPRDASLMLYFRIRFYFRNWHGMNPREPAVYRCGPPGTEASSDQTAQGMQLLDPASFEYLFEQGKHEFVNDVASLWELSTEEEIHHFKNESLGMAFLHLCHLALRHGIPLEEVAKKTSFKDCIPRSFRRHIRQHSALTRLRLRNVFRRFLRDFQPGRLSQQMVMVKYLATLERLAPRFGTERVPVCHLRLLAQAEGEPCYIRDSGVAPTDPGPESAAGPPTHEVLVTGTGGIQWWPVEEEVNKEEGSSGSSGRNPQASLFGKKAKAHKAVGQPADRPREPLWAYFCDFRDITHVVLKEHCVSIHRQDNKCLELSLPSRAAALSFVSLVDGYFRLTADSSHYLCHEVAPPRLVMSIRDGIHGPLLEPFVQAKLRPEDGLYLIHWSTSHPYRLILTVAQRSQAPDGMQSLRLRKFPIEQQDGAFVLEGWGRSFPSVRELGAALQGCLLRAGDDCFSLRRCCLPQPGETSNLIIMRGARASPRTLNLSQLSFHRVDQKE

V5-TYK2 (human) = V5-TYK2 (human) (UniProt P29597); experiment: as above
[1] = molecular target: TurboID-V5-JAK1 (transfected in HEK293T) (human) (UniProt P23458); experiment: co-IP; HEK293T co-transfected with Flag-PJA2 and each TurboID-V5-tagged type I IFN signaling component; cell lysates, IP, immunoblotting
[2] = molecular target: TurboID-V5-TYK2 (transfected in HEK293T) (human) (UniProt P29597); experiment: as above

binding (Flag-PJA2-rm (human)): binds | binding (Flag-PJA2 (human)): binds
Molecule: TYK2 (endogenous, HEK293T) (from UniProt P29597 1-1187) (enzyme)

binding (V5-TYK2(1-588) (human)): binds | binding (V5-TYK2 (human)): binds
B1: PJA2 (endogenous, HEK293T) (enzyme, UniProt O43164 1-708)
chain: MSQYTEKEPAAMDQESGKAVWPKPAGGYQTITGRRYGRRHAYVSFKPCMTRHERSLGRAGDDYEVLELDDVPKENSSGSSPLDQVDSSLPSEPIFEKSETEIPTCGSALNQTTESSQSFVAVHHSEEGRDTLGSSTNLHNHSEGEYIPGACSASSVQNGIALVHTDSYDPDGKHGEDNDHLQLSAEVVEGSRYQESLGNTVFELENREAEAYTGLSPPVPSFNCEVRDEFEELDSVPLVKSSAGDTEFVHQNSQEIQRSSQDEMVSTKQQNNTSQERQTEHSPEDAACGPGHICSEQNTNDREKNHGSSPEQVVRPKVRKLISSSQVDQETGFNRHEAKQRSVQRWREALEVEESGSDDLLIKCEEYDGEHDCMFLDPPYSRVITQRETENNQMTSESGATAGRQEVDNTFWNGCGDYYQLYDKDEDSSECSDGEWSASLPHRFSGTEKDQSSSDESWETLPGKDENEPELQSDSSGPEEENQELSLQEGEQTSLEEGEIPWLQYNEVNESSSDEGNEPANEFAQPAFMLDGNNNLEDDSSVSEDLDVDWSLFDGFADGLGVAEAISYVDPQFLTYMALEERLAQAMETALAHLESLAVDVEVANPPASKESIDGLPETLVLEDHTAIGQEQCCPICCSEYIKDDIATELPCHHFFHKPCVSIWLQKSGTCPVCRRHFPPAVIEASAAPSSEPDPDAPPSNDSIAEAP

binding [1]: binds | binding [2]: binds
B2: Flag-PJA2 (enzyme, UniProt O43164-1 1-708)
chain: MSQYTEKEPAAMDQESGKAVWPKPAGGYQTITGRRYGRRHAYVSFKPCMTRHERSLGRAGDDYEVLELDDVPKENSSGSSPLDQVDSSLPSEPIFEKSETEIPTCGSALNQTTESSQSFVAVHHSEEGRDTLGSSTNLHNHSEGEYIPGACSASSVQNGIALVHTDSYDPDGKHGEDNDHLQLSAEVVEGSRYQESLGNTVFELENREAEAYTGLSPPVPSFNCEVRDEFEELDSVPLVKSSAGDTEFVHQNSQEIQRSSQDEMVSTKQQNNTSQERQTEHSPEDAACGPGHICSEQNTNDREKNHGSSPEQVVRPKVRKLISSSQVDQETGFNRHEAKQRSVQRWREALEVEESGSDDLLIKCEEYDGEHDCMFLDPPYSRVITQRETENNQMTSESGATAGRQEVDNTFWNGCGDYYQLYDKDEDSSECSDGEWSASLPHRFSGTEKDQSSSDESWETLPGKDENEPELQSDSSGPEEENQELSLQEGEQTSLEEGEIPWLQYNEVNESSSDEGNEPANEFAQPAFMLDGNNNLEDDSSVSEDLDVDWSLFDGFADGLGVAEAISYVDPQFLTYMALEERLAQAMETALAHLESLAVDVEVANPPASKESIDGLPETLVLEDHTAIGQEQCCPICCSEYIKDDIATELPCHHFFHKPCVSIWLQKSGTCPVCRRHFPPAVIEASAAPSSEPDPDAPPSNDSIAEAP
